From PMC5290147
Results are given in words; binding and its absence hold for the method and conditions named. Binding seen in cells or lysates may run through a third protein. Some binding calls cover weakened binding; strength is not graded here.

Target: β1 wild-type cytoplasmic tail peptide
Assay: pull-down; desthiobiotinylated peptides immobilised on Dynabeads MyOne Streptavidin C1; 1 mg pKO-αV/β1 fibroblast lysate, overnight at 4 °C; western blot; only the target purified

B1: kindlin-2 (protein, UniProt Q8CIB5 1-680)
chain: MALDGIRMPDGCYADGTWELSVHVTDLNRDVTLRVTGEVHIGGVMLKLVEKLDVKKDWSDHALWWEKKRTWLLKTHWTLDKCGIQADAKLQFTPQHKLLRLQLPNMKYVKVKVNFSDRVFKAVSDICKTFNIRHPEELSLLKKPRDPTKKKKKKLDDQSEDEALELEGPLIMPGSGSIYSSPGLYSKTMTPTYDAHDGSPLSPTSAWFGDSALSEGNPGILAVSQPVTSPEILAKMFKPQALLDKAKTNQGWLDSSRSLMEQDVKENEALLLRFKYYSFFDLNPKYDAIRINQLYEQAKWALLLEEIECTEEEMMMFAALQYHINKLSIMTSENHLNNSDKEVDEVDAALSDLEITLEGGKTSTILGDITSIPELADYIKVFKPKKLTLKGYKQYWCTFKDTSISCYKSREESSGTPAHQLNLRGCEVTPDVNISGQKFNIKLLIPVAEGMNEIWLRCDNEKQYAHWMAACRLASKGKTMADSSYNLEVQNILSFLKMQHLNPDPQLIPDQITTDVNPECLVSPRYLKKYKSKQITARILEAHQNVAQMSLIEAKMRFIQAWQSLPEFGITHFIARFQGGKREELIGIAYNRLIRMDASTGDAIKTWRFSNMKQWNVNWEIKMVTVEFADEVRLSFICTEVDCKVVHEFIGGYIFLSTRAKDQNESLDEEMFYKLTSGWV
  binding: binds
